Experimental findings from paper PMC6853915 are described below.

By UniProt entry, the sequences of proteins in these tests, tags left out. Residues count along the entry.
UniProt P30405, residues 30-207: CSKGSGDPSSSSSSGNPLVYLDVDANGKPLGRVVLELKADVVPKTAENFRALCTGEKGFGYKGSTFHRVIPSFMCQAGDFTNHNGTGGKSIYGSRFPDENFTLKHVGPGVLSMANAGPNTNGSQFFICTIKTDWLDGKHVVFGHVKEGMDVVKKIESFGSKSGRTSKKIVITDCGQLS
UniProt Q99714: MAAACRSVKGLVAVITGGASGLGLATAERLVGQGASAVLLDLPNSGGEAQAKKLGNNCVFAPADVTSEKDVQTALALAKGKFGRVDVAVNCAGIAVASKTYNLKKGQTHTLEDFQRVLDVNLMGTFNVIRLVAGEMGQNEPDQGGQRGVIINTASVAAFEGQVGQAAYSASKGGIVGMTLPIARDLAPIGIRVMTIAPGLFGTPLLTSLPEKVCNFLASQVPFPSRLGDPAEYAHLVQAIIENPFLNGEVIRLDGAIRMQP

For the assay, the target named is cyclophilin D (human) (UniProt P30405). Briefly: SPR; as a1, but running buffer without added K+, Mg2+ or Ca2+ (0 mM; 10 mM HEPES, 200 μg/ml BSA, 5 mM Na+), pH 7.4 or 7.8, 25 °C; both purified.

Results are given in words; binding and its absence hold for the method and conditions named. Some entries that bind do so weakly or less than the wild type.

On to “17beta-hydroxysteroid dehydrogenase type 10 (from UniProt Q99714 1-261) (enzyme)”, for which the binding entry is on record as “binds weakly”.
